Results taken from the odorant receptor screen of Mainland et al. (2015).
“And” between values parts separate entries of the source, which are not always exact repeats. Identical values can stand only once. The list shows a part of the results. Each value is one well over the wells without odorant, computed here; the data are noisy.

Tests used:
Experiment in all cases: odorant receptor activation (CRE luciferase / Renilla) (fold of no-odor wells); higher = more activation
Details in all cases: 100 µM
[1] = system: OR13G1 I132V clone 1036
[2] = system: OR13H1 clone 1497
[3] = system: OR13J1 H133R clone 1098
[4] = system: OR14A16 Indel clone 1030
[5] = system: OR14A2 clone 1042
[6] = system: OR14C36 G225R/D231Y clone 1028
[7] = system: OR14I1 V36A/D50N/S170N clone 1479
[8] = system: OR14J1 clone 1318
[9] = system: OR14J1 clone 1391
[10] = system: OR14K1 clone 1043
[11] = system: OR14L1 clone 1029
[12] = system: OR1A1 P285S clone 1531
[13] = system: OR1A1 R128H clone 1528
[14] = system: OR1A1 V233M clone 1287
[15] = system: OR1A1 V233M clone 1530
[16] = system: OR1A1 clone 1529
[17] = system: OR1A2 clone 1158
[18] = system: OR1C1 clone 1044
[19] = system: OR1D2 clone 1376
[20] = system: OR1D5 clone 1289

SMILES | odorant receptor activation [1] | odorant receptor activation [2] | odorant receptor activation [3] | odorant receptor activation [4] | odorant receptor activation [5] | odorant receptor activation [6] | odorant receptor activation [7] | odorant receptor activation [8] | odorant receptor activation [9] | odorant receptor activation [10] | odorant receptor activation [11] | odorant receptor activation [12] | odorant receptor activation [13] | odorant receptor activation [14] | odorant receptor activation [15] | odorant receptor activation [16] | odorant receptor activation [17] | odorant receptor activation [18] | odorant receptor activation [19] | odorant receptor activation [20]
CCCCCCOC(=O)CCC [hexyl butyrate] | 0.559 | 0.781 and 0.915 | 0.525 | 1.1 | 1.44 | 0.54 | 0.904 and 0.832 | 1.17 and 0.924 | 0.905 | 1.06 | 0.756 | 0.938 and 1.04 | 1.01 and 1.1 | 1.16 and 1.05 and 1.04 | 1.49 and 1.21 | 0.921 and 1.12 | 0.815 | 0.684 | 1.44 | 0.82 and 0.902
CCCCCCCC=CC=O [2-decenal] | 29.7 | 1.64 | 3.22 | 4.52 | 15.8 | 11.6 | 1.19 | 1.57 | 2.85 | 10.4 | 14.2 | 1.13 | 1.55 | 1.54 and 2.52 | 1.56 | 1.46 | 1.2 | 10 | 1.23 | 1.06
O=C1CCCCCCCCCCCCCCO1 [pentadecalactone] | 1.32 | 0.816 | 1.22 | 0.933 | 0.944 | 0.799 | 0.943 | 0.804 | 1.47 | 0.783 | 0.967 | 0.687 | 0.971 | 0.757 and 0.928 | 1.09 | 0.906 | 0.774 | 0.73 | 1.01 | 0.767
CC(C)CCC(=O)O [4-methylvaleric acid] | 1.39 | 1.04 | 1.92 | 1.75 | 1.73 | 1.77 | 0.813 | 1.07 | 1.52 | 1.64 | 1.96 | 0.781 | 0.863 | 1 and 1.26 | 1.01 | 0.973 | 0.745 | 2.06 | 0.372 | 0.867
CC(=O)OC1CC2CCC1(C)C2(C)C (stereo not given) [isobornyl acetate] | 1.01 | 1.02 and 1.12 | 0.662 | 1.05 | 0.902 | 0.853 | 0.974 and 1.14 | 1.61 and 0.799 | 0.929 | 0.995 | 0.961 | 0.764 and 0.919 | 0.864 and 1.24 | 1.15 and 0.598 and 0.871 | 0.984 and 1.35 | 0.82 and 1.18 | 0.843 | 0.63 | 1.12 | 0.948 and 0.966
CCCCCC(=O)O [caproic acid] | 1.01 | 0.892 | 0.764 | 0.662 | 0.946 | 0.753 | 0.905 | 0.823 | 0.136 | 0.864 | 0.768 | 1.15 | 1.09 | 1.17 and 0.786 | 0.862 | 0.903 | 0.851 | 0.926 | 0.162 | 0.773
CC12C=CCC1C1CCC3=CC(=O)CCC3(C)C1CC2 (stereo not given) [androstadienone] | 1.1 | 0.997 and 1.06 | 0.916 | 1.96 | 1.35 | 1.27 | 0.932 and 0.993 | 0.724 and 1.08 | 0.751 | 3.25 | 2.28 | 0.682 and 1.25 | 1.06 and 1.56 | 1.18 and 0.836 | 1.22 and 1.49 | 0.794 and 1.6 | 0.807 | 1.73 | 1.19 | 0.921 and 0.968
CC(C)=CCCC(C)=CC=O [citral] | 1.22 | 0.892 | 0.663 | 0.927 | 1.12 | 0.996 | 1.09 | 0.875 | 0.182 | 0.93 | 1.09 | 2.19 | 1.53 | 4.54 and 2.13 | 2.8 | 2.44 | 0.894 | 1.15 | 0.234 | 1.16
COc1cc(C)ccc1O [2-methoxy-4-methylphenol] | 1.81 | 0.761 | 1.93 | 1.88 | 1.75 | 1.75 | 0.889 | 1 | 1.85 | 1.66 | 2.47 | 0.716 | 0.851 | 1.16 and 1.75 | 1.21 | 0.918 | 1.24 | 1.79 | 0.739 | 0.829
CCCCCCCCOC(C)=O [octyl acetate] | 0.996 | 0.947 | 1.15 | 1.07 | 0.994 | 1.5 | 0.848 | 1.01 | 0.822 | 0.875 | 1.12 | 1.21 | 1.15 | 0.509 and 1.5 | 1.11 | 1.06 | 0.954 | 0.947 | 1.24 | 1.18
CC1CCC(C(C)C)C(O)C1 (single isomer, unassigned; (+)) [(+)-menthol] | 3.71 | 1.32 | 2.96 | 3.17 | 3.61 | 3.73 | 1.08 | 1.14 | 1.16 | 3.23 | 3.73 | 1.68 | 1.76 | 5.62 and 8.67 | 2.72 | 2.37 | 1.35 | 2.89 | 0.606 | 0.907
O=CCc1ccccc1 [phenyl acetaldehyde] | 1.89 | 1.37 | 2.08 | 1.26 | 1.15 | 0.992 | 1.08 | 1.12 | 1.64 | 1.25 | 1.09 | 0.788 | 1.3 | 0.641 and 1.61 | 1.47 | 1.21 | 1.03 | 1.36 | 2.31 | 1.11
COC(=O)c1ccccc1 [methyl benzoate] | 1.01 | 0.592 and 1.15 | 1.04 | 0.709 | 1.21 | 0.545 | 0.721 and 0.778 | 0.661 | 0.601 | 1.31 | 0.865 | 0.811 and 1.1 | 0.87 and 1.15 | 1.28 | 1.24 and 1.37 | 0.623 and 1.28 | 0.961 | 2.01 | 1.05 | 0.643
COc1ccccc1O [guaiacol] | 1.13 | 0.915 and 1 | 0.579 | 1.53 | 2.94 | 1.68 | 0.939 and 1.09 | 0.791 and 0.943 | 0.86 | 2.17 | 1.8 | 0.627 and 1.31 | 0.807 and 1.24 | 1.49 and 1.25 and 0.956 | 1.58 and 1.45 | 0.858 and 1.56 | 0.905 | 0.736 | 1.11 | 0.876 and 0.906
CCCCCOC(C)=O [n-amyl acetate] | 0.64 | 0.704 and 0.788 | 1.39 | 0.954 | 2.45 | 0.819 | 0.583 and 0.688 | 0.413 | 0.758 | 1.23 | 0.787 | 1.05 and 1.18 | 0.819 and 0.931 | 0.779 and 2.05 | 1.62 and 1.63 | 0.567 and 1.52 | 0.814 | 1.88 | 0.909 | 0.329
CC(=O)C(C)=O [diacetyl] | 1.09 | 1.57 | 1.2 | 1.27 | 1.18 | 1.17 | 1.18 | 1.28 | 1.34 | 1.27 | 1.11 | 1.36 | 1.98 | 2.38 and 0.921 | 1.44 | 1.6 | 1.44 | 1.09 | 1.08 | 1.37
O=C1CCCCCCCCCCCC(=O)OCCO1 [ethylene brassylate] | 1.8 | 1.02 | 1.42 | 1.76 | 1.74 | 2.04 | 1.02 | 1.62 | 1.99 | 1.83 | 2.01 | 1.73 | 1.69 | 4.01 and 1.66 | 2.01 | 1.78 | 1.64 | 1.67 | 1.53 | 1.8
COC(=O)c1ccccc1O [methyl salicylate] | 1.17 | 0.958 | 1.01 | 1.25 | 1.23 | 1.1 | 0.92 | 0.793 | 0.84 | 0.98 | 1.27 | 0.976 | 1.19 | 2.57 and 1.34 | 1.38 | 1.17 | 0.906 | 1.04 | 1.03 | 0.891
CC(C)(C)c1ccc(CCC=O)cc1 [bourgeonal] | 0.872 | 0.959 | 0.767 | 0.663 | 0.952 | 0.607 | 1.17 | 0.604 | 0.133 | 0.944 | 0.879 | 1.47 | 1.32 | 1.31 | 1.63 | 1.61 | 0.613 | 0.805 | 0.161 | 0.76
c1cnccn1 [pyrazine] | 1.27 | 0.941 | 1.48 | 0.966 | 0.979 | 0.68 | 0.632 | 0.746 | 1.21 | 0.964 | 0.955 | 0.855 | 0.905 | 0.874 and 1.09 | 1.02 | 0.991 | 1.13 | 0.972 | 1.11 | 0.791
CC12CCC(CC1)C(C)(C)O2 [cineole] | 0.873 | 0.834 | 0.664 | 0.802 | 0.857 | 0.822 | 0.996 | 0.901 | 0.116 | 0.704 | 0.83 | 1.05 | 0.984 | 1.4 and 0.834 | 0.961 | 0.852 | 0.675 | 0.675 | 0.176 | 0.829
CC/C=C\CCO [cis-3-hexen-1-ol] | 0.894 | 0.898 | 0.842 | 0.88 | 1.14 | 0.784 | 1.04 | 0.944 | 0.133 | 0.877 | 0.893 | 1.24 | 0.902 | 1.32 and 1.02 | 0.853 | 1.14 | 0.93 | 0.824 | 0.189 | 0.924
CCC1(O)C2(C)CCC(C2)C1(C)C (stereo not given) [2-ethylfenchol] | 3.36 | 0.984 | 3.53 | 3.55 | 2.8 | 2.62 | 0.87 | 1.25 | 1.17 | 3.09 | 2.81 | 0.947 | 1.14 | 0.968 and 2.15 | 1.23 | 1.07 | 0.908 | 3.37 | 0.444 | 0.98
C=CCc1ccc(OC)c(OC)c1 [eugenol methyl ether] | 1.73 | 1.36 | 1.68 | 1.72 | 1.48 | 1.67 | 1.34 | 1.83 | 1.62 | 1.69 | 1.75 | 1.74 | 1.88 | 5.84 and 2.38 | 1.94 | 1.81 | 1.67 | 1.59 | 1.57 | 1.78
CCCC(=O)O [butyric acid] | 1.22 | 1.21 | 0.971 | 1.01 | 1.2 | 0.803 | 0.942 | 0.92 | 0.169 | 1.12 | 0.99 | 1.28 | 0.91 | 2.36 and 0.843 | 1.04 | 0.948 | 0.928 | 1.04 | 0.195 | 0.887
CCCCCCCCCC=O [decyl aldehyde] | 1.36 | 1.03 | 1.32 | 1.23 | 1.1 | 1.44 | 0.916 | 1.15 | 1.46 | 1.25 | 1.62 | 1.4 | 1.35 | 2.19 and 1.2 | 1.66 | 1.17 | 1.23 | 1.16 | 1.47 | 1.34
CCCCCCCC=O [octyl aldehyde] | 1.12 | 1.08 | 1.06 | 1.33 | 1.08 | 1.11 | 0.839 | 0.949 | 0.77 | 0.98 | 1.32 | 1.02 | 1.11 | 0.585 and 1.12 | 0.976 | 0.797 | 0.917 | 1.23 | 0.961 | 1.12
